Reference: PubChem BioAssay AID1159578 (Peter MacCallum Cancer Centre, 2015)
Screen: 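Knock-downs that alter how fast lymphatic endothelial cells migrate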 (primary screen). Cells: human lymphatic endothelial cells. Reagents: siRNA pool against human genes, 40 nM. Duration: 48 h after transfection. Read-out: 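Cells stained with dye and imaged after a scratch; covered wound area and nuclei counted, duplicates averaged, migration set against mock wells and turned into a robust z-score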. Scale: migration robust z-score: higher = faster migration into the scratch; nuclei per well: higher = more cells in the well. Call rule: 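Pools averaging fewer than 3300 nuclei are never called; remaining pools count as changed when migration robust z lies outside -2 to 2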. Calls: active = migration changed; inactive = no migration change, or too few cells.
The whole screen tested about 18,000 reagents; below is a random part of them. Of all reagents, about 1,030 (5.7%) are marked active. 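Inactive calls also include pools with fewer than 3300 nuclei, whose migration was not assessed.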 Raw values vary from plate to plate and are shown uncorrected. Not all columns of the deposit are shown.

ZBTB3: migration robust z-score = 0.44; migration class with cell-count check = migration z between -2 and 2; enough cells; nuclei per well, duplicate mean = 5432; activity call = inactive
FCRL4: migration robust z-score = -1.77; migration class with cell-count check = migration z between -2 and 2; enough cells; nuclei per well, duplicate mean = 6610; activity call = inactive
RBM15: migration robust z-score = -1.38; migration class with cell-count check = migration z between -2 and 2; enough cells; nuclei per well, duplicate mean = 5376; activity call = inactive
ZNF436: migration robust z-score = -0.64; migration class with cell-count check = migration z between -2 and 2; enough cells; nuclei per well, duplicate mean = 6730; activity call = inactive
OR4Q3: migration robust z-score = -0.56; migration class with cell-count check = migration z between -2 and 2; enough cells; nuclei per well, duplicate mean = 5996; activity call = inactive
TOP1: migration robust z-score = 1.19; migration class with cell-count check = migration z between -2 and 2; enough cells; nuclei per well, duplicate mean = 8278; activity call = inactive
ZNF606: migration robust z-score = -0.68; migration class with cell-count check = migration z between -2 and 2; enough cells; nuclei per well, duplicate mean = 7126; activity call = inactive
TSPYL5: migration robust z-score = 0.34; migration class with cell-count check = migration z between -2 and 2; enough cells; nuclei per well, duplicate mean = 6215; activity call = inactive
PRXL2B: migration robust z-score = -1.21; migration class with cell-count check = migration z between -2 and 2; enough cells; nuclei per well, duplicate mean = 5824; activity call = inactive
PDIA3: migration robust z-score = -1.79; migration class with cell-count check = migration z between -2 and 2; enough cells; nuclei per well, duplicate mean = 4488; activity call = inactive
OR5M11: migration robust z-score = 1.88; migration class with cell-count check = migration z between -2 and 2; enough cells; nuclei per well, duplicate mean = 6683; activity call = inactive
SAMD5: migration robust z-score = -1.02; migration class with cell-count check = migration z between -2 and 2; enough cells; nuclei per well, duplicate mean = 6270; activity call = inactive
ANG: migration robust z-score = -1.12; migration class with cell-count check = migration z between -2 and 2; enough cells; nuclei per well, duplicate mean = 3860; activity call = inactive
NEUROG1: migration robust z-score = -3.02; migration class with cell-count check = under 3300 nuclei; migration not judged; nuclei per well, duplicate mean = 3006; activity call = inactive
OR10C1: migration robust z-score = 0.34; migration class with cell-count check = migration z between -2 and 2; enough cells; nuclei per well, duplicate mean = 4904; activity call = inactive
RWDD3: migration robust z-score = 0.68; migration class with cell-count check = migration z between -2 and 2; enough cells; nuclei per well, duplicate mean = 7300; activity call = inactive
H2BC3: migration robust z-score = -0.73; migration class with cell-count check = migration z between -2 and 2; enough cells; nuclei per well, duplicate mean = 5178; activity call = inactive
PPP2R2A: migration robust z-score = -0.62; migration class with cell-count check = migration z between -2 and 2; enough cells; nuclei per well, duplicate mean = 5214; activity call = inactive
RNPC3: migration robust z-score = 1.02; migration class with cell-count check = migration z between -2 and 2; enough cells; nuclei per well, duplicate mean = 6628; activity call = inactive
PCGF6: migration robust z-score = -0.29; migration class with cell-count check = migration z between -2 and 2; enough cells; nuclei per well, duplicate mean = 5405; activity call = inactive
PTPRR: migration robust z-score = -0.03; migration class with cell-count check = migration z between -2 and 2; enough cells; nuclei per well, duplicate mean = 4556; activity call = inactive

Targets listed so far whose target name begins with T or t:
TOP1: migration robust z-score = 1.19; migration class with cell-count check = migration z between -2 and 2; enough cells; nuclei per well, duplicate mean = 8278; activity call = inactive
TSPYL5: migration robust z-score = 0.34; migration class with cell-count check = migration z between -2 and 2; enough cells; nuclei per well, duplicate mean = 6215; activity call = inactive
